Assay results published in the supplement of paper PMC9549374.
This is one part of the list. No stated cut-off is given here; in the data, active = 2-fold of DMSO or more and inactive = the rest. Single values of this set are uncertain. Some low values are a fixed figure set by the source, not a measured ratio.

test system: CM7/1-hgem mouse ES cell-derived cardiomyocytes; experiment: maximal number of mAG-hGem(1/110)-positive cardiomyocytes over 96 h, fold-change vs DMSO; higher = more cardiomyocyte cell cycle activity; conditions: 1 µM; 96 (max over 12 h time points) h

Compound | maximal number
CCCCCCCCCC(=O)N[C@@H](Cc1c[nH]c2ccccc12)C(=O)N[C@H](CC(N)=O)C(=O)N[C@@H](CC(=O)O)C(=O)N[C@@H]1C(=O)NCC(=O)N[C@@H](CCCN)C(=O)N[C@@H](CC(=O)O)C(=O)N[C@H](C)C(=O)N[C@@H](CC(=O)O)C(=O)NCC(=O)N[C@H](CO)C(=O)N[C@@H]([C@H](C)CC(=O)O)C(=O)N[C@@H](CC(=O)c2ccccc2N)C(=O)O[C@@H]1C | inactive: 1
COC1(C)CCC2OC2(C)CCC2C1CC2(C)C (configuration not stated) | inactive: 0
Fc1ccc(C(c2ccc(F)cc2)N2CCN(C/C=C/c3ccccc3)CC2)cc1 | inactive: 1
CCC/C=C\C=C/C(=O)N[C@@H](CC(N)=O)C(=O)NC(CC(N)=O)C(=O)N[C@@H](C(=O)N[C@H](CCCN)C(=O)N[C@@H](C(=O)N[C@@H](C(=O)N[C@@H](C(=O)N[C@H](C(=O)N[C@@H](Cc1ccccc1)C(=O)N[C@H](CCCN)C(=O)NC(C(=O)N[C@H](C(=O)NC(C(=O)NCC(=O)N[C@@H](CC(C)C)C(=O)N[C@H](C)C(=O)NC(C(=O)O)C1CCC(O)C(Cl)C1)C1CCC(O)CC1)[C@H](C)O)C1CCC(O)CC1)[C@H](C)O)C1CCC(O)CC1)C1CCC(O)CC1)[C@H](C)O)C1CCC(O)CC1 (some centres not stated) [RAMOPLANIN [A2 shown; 2mM]] | inactive: 1
NCCC[C@H](N)C(=O)O | inactive: 1
O=C(O)CSCC(=O)NC1CCSC1=O (configuration not stated) | inactive: 1
COc1c2ccoc2nc2c(OC)c(OCC(O)C(C)(C)O)ccc12 (configuration not stated) | inactive: 1
C=C[C@@H](C1=CC(=O)C(OC)=C(OC)C1=O)c1ccccc1 | inactive: 0.5
CN1C(C(=O)Nc2ccccn2)=C(O)c2sc(Cl)cc2S1(=O)=O | inactive: 1
CCOc1ccc(C(=O)c2ccc(O)c(O)c2O)cc1 | inactive: 1
CC1(C)CC23C(=O)CCC(O)C2(C)CCC13 (configuration not stated) | inactive: 1
OCCN1CCN(CCCN2c3ccccc3Sc3ccc(C(F)(F)F)cc32)CC1 | inactive: 1
COc1ccc(C(=O)c2ccc(O)cc2)c(O)c1O | inactive: 1
CCOC(=O)c1c(C)cc(O)c(C=O)c1O | inactive: 1
CC(C)C1=CC2=CC[C@@H]3[C@](C)(CCC[C@@]3(C)C(=O)O)[C@H]2CC1 | inactive: 1
Cc1c(O)c(=O)ccn1C | inactive: 1
CCCCC/C=C\C/C=C\C/C=C\C/C=C\CCCC(=O)O | inactive: 1
CC(C)c1c(C(=O)Nc2ccccc2)c(-c2ccccc2)c(-c2ccc(F)cc2)n1CC[C@@H](O)C[C@@H](O)CC(=O)O | inactive: 1
CC(=O)OC1CC2CCC1(C)C2(C)C (configuration not stated) | inactive: 1

2 entries picked at random from the list so far:
Compound | maximal number
CC(C)c1c(C(=O)Nc2ccccc2)c(-c2ccccc2)c(-c2ccc(F)cc2)n1CC[C@@H](O)C[C@@H](O)CC(=O)O | inactive: 1
OCCN1CCN(CCCN2c3ccccc3Sc3ccc(C(F)(F)F)cc32)CC1 | inactive: 1

The results go on.

Compound | maximal number
CC(C)C[C@H](N)C(=O)N[C@@H](C)C(=O)O | inactive: 1
CCOC(=O)C(C)(C)Oc1ccc(Cl)cc1 | inactive: 1
CC(=O)OCC(=O)NCCCOc1cccc(CN2CCCCC2)c1 | inactive: 1
COC(=O)Oc1ccccc1C(=O)O | inactive: 1
CC(C)CCC[C@@H](C)[C@H]1CC[C@H]2[C@@H]3CC[C@H]4CC(=O)CC[C@]4(C)[C@H]3CC[C@]12C | inactive: 0.5
COc1cc2ccc(=O)oc2c(OC)c1OC | inactive: 0.5
Nc1[nH]cnc2ncnc1-2 | inactive: 1
CCCCCCCCCCCC[C@@H](C(=O)O)[C@H](C)C(=O)O | inactive: 1
CCN1CCN(c2cc3c(cc2F)c(=O)c(C(=O)O)cn3C2CC2)CC1 | inactive: 0
C[C@H]1[C@H]2CC[C@H]3[C@@H]4CC=C5C[C@@H](N(C)C)CC[C@]5(C)[C@H]4CC[C@]23CN1C | inactive: 1
Cn1nnc2c(C(N)=O)ncn2c1=O | inactive: 1
C[C@H](CCC(=O)O)[C@H]1CC[C@H]2[C@@H]3C(=O)C[C@@H]4CC(=O)CC[C@]4(C)[C@H]3CC(=O)[C@]12C | inactive: 1
NCCCCC(=O)O | inactive: 1
Cc1c(NC(C)C)c(=O)n(-c2ccccc2)n1C | inactive: 1
OCc1ccccc1O[C@@H]1O[C@H](CO)[C@@H](O)[C@H](O)[C@H]1O | inactive: 1
C=C1[C@H]2CC[C@@]3(C)[C@H](c4ccoc4)OC(=O)C[C@]13O[C@H]1C[C@H](O)C(C)(C)[C@H](CC(=O)OC)[C@]12C [3-DEOXY-3beta-HYDROXYANGOLENSIC ACID METHYL ESTER] | inactive: 0
Nc1c2ccccc2nc2ccccc12 | inactive: 1
CC(=O)OC1CCC23CC1(C)CCC2C(C)(C)CC3OC(C)=O (configuration not stated) | inactive: 1
